Our source for the binding values is US20230374147A1.

Chains of the proteins cited; added tags and fusions are not shown. Lines headed by an entry give the natural chain unless they say otherwise; changes in a name come on top. A line that says so, or that is headed by a name, gives the form on record, which may keep a tag or linker.
Cyno TACI-His (Sino Biological, 90976-C08H) (G7PTR7, form named): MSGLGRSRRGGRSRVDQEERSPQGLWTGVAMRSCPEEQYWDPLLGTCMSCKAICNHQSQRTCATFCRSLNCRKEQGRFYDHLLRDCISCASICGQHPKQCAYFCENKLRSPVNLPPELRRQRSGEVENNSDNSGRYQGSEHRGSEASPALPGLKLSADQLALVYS
UniProt O88472: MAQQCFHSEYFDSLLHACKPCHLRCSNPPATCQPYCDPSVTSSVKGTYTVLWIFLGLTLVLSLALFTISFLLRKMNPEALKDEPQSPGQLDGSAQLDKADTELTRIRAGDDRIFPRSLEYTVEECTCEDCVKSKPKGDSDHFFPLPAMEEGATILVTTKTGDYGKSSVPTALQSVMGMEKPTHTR

The target in test [1] is Cyno TACI-His (Sino Biological, 90976-C08H) (cynomolgus macaque) (UniProt G7PTR7). In words: BLI (Gator), antibody loaded on HFC biosensor, His-tagged antigen as analyte.
For test [2] the target is unchanged. Briefly: ELISA, coated His-tagged antigen.
In test [3] the target is His-tagged mouse BCMA (Acro Biosystems, BCA-M52H3) (mouse) (UniProt O88472). In words: BLI, His-tagged mouse BCMA on HIS1K tip.

These are yes or no findings as the source states them, for the method shown. Some binding calls cover weakened binding; strength is not graded here.

B1: 1C8-403 hIgG1 (antibody, V domains shown)
VH: QVQLVQSGAEVKKPGASVKVSCKASGYTFTNYVMHWVKQKPGQGLEWMGYILPYNDGTKYAQKFQGKVTMTSDKSTSTVYMELSSLTSEDTAVYYCARYDWEGSFDYWGQGTLVTVSS
VL: DIQMTQSPSSLSASVGDRVTITCRASSDISNYLNWYQQKPGKAPKLLMCYTSRLHSGVPSRFSGSGSGTDFTLTISSLEQEDFATYYCQQGNTFPPTFGGGTKVEIKR
As for B1, the binding result in test [1] and in test [2] was “binds” in each case.

B2: 1C8-27 hIgG1 (antibody, V domains shown)
VH: QVQLVQSGAEVKKPGASVKVSCKASGYTFTNYVMHWVRQAPGQRLEWMGYILPYNDGTKYSQKFQGRVTITRDTSASTAYMELSSLRSEDTAVYYCARYDWEGSFDYWGQGTTVTVSS
VL: DIQMTQSPSSLSASVGDRVTITCAASQDISNYLNWYQQKPGKAVKLLMRYTSRLHSGVPSRFSGSGSGTDFTLTISSLQPEDFATYYCQQGNRFPPTFGGGTKLEIKR
For B2, the binding result in test [1] is on record as “binds”.

B3: 1C8-507 hIgG1 (antibody, V domains shown)
VH: QVQLVQSGAEVKKPGASVKVSCKASGYTFRNYVMHWVKQKPGQGLEWMGWILPYNDGTKYAQKFQGKVTMTSDKSTSTVYMELSSLTSEDTAVYYCARYDYEGSFDYWGQGTLVTVSS
VL: DIQMTQSPSSLSASVGDRVTITCRASQDISNYLNWYQQKPGKAPKLLMRYTSLLHSGVPSRFSGSGSGTDFTLTISSLEQEDFATYYCQQGNTFPPTFGGGTKVEIKR
As to B3, the binding entry in test [1] and in test [2] was “binds” in each case.

B4: 1C8-6A3 hIgG1 (antibody, V domains shown)
VH: QVQLVQSGAEVKKPGASVKVSCKASGYTFTNYVMHWVKQKPGQGLEWMGYILPYNDGTKYAQKFQGKVTMTSDKSTSTVYMELSSLTSEDTAVYYCARYDYEGSFDYWGQGTLVTVSS
VL: DIQMTQSPSSLSASVGDRVTITCRASQDISNYLNWYQQKPGKAPKLLMCYTSRLHSGVPSRFSGSGSGTDFTLTISSLEQEDFATYYCQQGNTFPPTFGGGTKVEIKR
As for B4, the binding entry in test [1] and in test [2] was “binds” throughout.

B5: 1C8-25 hIgG1 (antibody, V domains shown)
VH: QVQLVQSGAEVKKPGASVKVSCKASGYTFTNYVMHWVRQAPGQRLEWMGYILPYNDGTKYSQKFQGRVTITRDTSASTAYMELSSLRSEDTAVYYCARYDWEGSFDYWGQGTTVTVSS
VL: DIQMTQSPSSLSASVGDRVTITCRASQDIGNYLNWYQQKPGKAVKLLMRYTSRLHSGVPSRFSGSGSGTDFTLTISSLQPEDFATYYCQQGFTFPPTFGGGTKLEIKR
Regarding B5, in test [1], the binding entry is on record as “binds”.

B6: 1C8-610 hIgG1 (antibody, V domains shown)
VH: QVQLVQSGAEVKKPGASVKVSCKASGYTFTNYVMFWVKQKPGQGLEWMGYITPYNDGTKYAQKFQGKVTMTSDKSTSTVYMELSSLTSEDTAVYYCARYDYEGSFDYWGQGTLVTVSS
VL: DIQMTQSPSSLSASVGDRVTITCRASQDISNYLNWYQQKPGKAPKLLMRYTSRFHSGVPSRFSGSGSGTDFTLTISSLEQEDFATYYCQQGNTFPPTSGGGTKVEIKR
Take B6: the binding result in test [1] and in test [2] was “binds” in each case.

B7: J6M0 (antibody, V domains shown)
VH: QVQLVQSGAEVKKPGSSVKVSCKASGGTFSNYWMHWVRQAPGQGLEWMGATYRGHSDTYYNQKFKGRVTITADKSTSTAYMELSSLRSEDTAVYYCARGAIYDGYDVLDNWGQGTLVTVSS
VL: DIQMTQSPSSLSASVGDRVTITCSASQDISNYLNWYQQKPGKAPKLLIYYTSNLHSGVPSRFSGSGSGTDFTLTISSLQPEDFATYYCQQYRKLPWTFGQGTKLEIK
As to B7, the binding result in test [3] is “no binding (tested: 1000 nM)”.
